Measured values from patent US12099068B2, “Biomarkers for graft-versus-host disease” (Incyte Corporation, priority 2018, dated 2024).

How the values were obtained:
[1] = test system: plasma proteins; assay: OLINK proximity extension assay of baseline plasma, CR compared to PD/Death, updated classification, Example 5 (Table 11); type: in vivo, human; conditions: itacitinib 200 or 300 mg QD plus corticosteroids, response at day 28
[2] = test system: plasma proteins; assay: Proteins of Table 11 stably expressed in complete responders between days 1 and 28, Example 5 (Table 12); type: in vivo, human; conditions: day 1 vs day 28
Method: Due to the limited sample size, steroid-naive (N=10) and steroid-refractory (N=18) patients were combined for further analysis. Broad proteomic analysis of over 1000 proteins was conducted by OLINK Proteomics (Watertown, MA) using a proximity extension assay as described by the manufacturer. Data are presented as normalized protein expression (NPX) in log 2 scale. Statistical differences were evaluated using unpaired and paired t tests, one-way […] (ANOVA), and Pearson Correlation. Significance was conferred when P<0.05.

Molecule	Fold Change, Down-Regulated in CR Compared to PD/Death [1]	Fold Change (D1 vs D28), proteins Down-Regulated in CR Compared to PD/Death [2]	Fold Change, Up-Regulated in CR Compared to PD/Death [1]	Fold Change (D1 vs D28), proteins Up-Regulated in CR Compared to PD/Death [2]
EDIL3 (protein, UniProt O43854 24-480, looked up) EGF-like repeat and discoidin …: DICDPNPCENGGICLPGLADGSFSCECPDGFTDPNCSSVVEVASDEEEPTSAGPCTPNPCHNGGTCEISEAYRGDTFIGYVCKCPRGFNGIHCQHNINECEVEPCKNGGICTDLVANYSCECPGEFMGRNCQYKCSGPLGIEGGIISNQQITASSTHRALFGLQKWYPYYARLNKKGLINAWTAAENDRWPWIQINLQRKMRVTGVITQGAKRIGSPEYIKSYKIAYSNDGKTWAMYKVKGTNEDMVFRGNIDNNTPYANSFTPPIKAQYVRLYPQVCRRHCTLRMELLGCELSGCSEPLGMKSGHIQDYQITASSIFRTLNMDMFTWEPRKARLDKQGKVNAWTSGHNDQSQWLQVDLLVPTKVTGIITQGAKDFGHVQFVGSYKLAYSNDGEHWTVYQDEKQRKDKVFQGNFDNDTHRKNVIDPPIYARHIRILPWSWYGRITLRSELLGCTEEE	−1.2737			
CA5A (protein, UniProt P35218 39-305, looked up) Carbonic anhydrase 5A, …: CAWQTSNNTLHPLWTVPVSVPGGTRQSPINIQWRDSVYDPQLKPLRVSYEAASCLYIWNTGYLFQVEFDDATEASGISGGPLENHYRLKQFHFHWGAVNEGGSEHTVDGHAYPAELHLVHWNSVKYQNYKEAVVGENGLAVIGVFLKLGAHHQTLQRLVDILPEIKHKDARAAMRPFDPSTLLPTCWDYWTYAGSLTTPPLTESVTWIIQKEPVEVAPSQLSAFRTLLFSALGEEEKMMVNNYRPLQPLMNRKVWASFQATNEGTRS	−7.4693	−1.1295		
SULT2A1 (protein, UniProt Q06520 1-285, looked up) Sulfotransferase 2A1: MSDDFLWFEGIAFPTMGFRSETLRKVRDEFVIRDEDVIILTYPKSGTNWLAEILCLMHSKGDAKWIQSVPIWERSPWVESEIGYTALSETESPRLFSSHLPIQLFPKSFFSSKAKVIYLMRNPRDVLVSGYFFWKNMKFIKKPKSWEEYFEWFCQGTVLYGSWFDHIHGWMPMREEKNFLLLSYEELKQDTGRTIEKICQFLGKTLEPEELNLILKNSSFQSMKENKMSNYSLLSVDYVVDKAQLLRKGVSGDWKNHFTVAQAEDFDKLFQEKMADLPRELFPWE	−4.7009	1.2251		
SPON2 (protein, UniProt Q9BUD6 27-331, looked up) Spondin-2: QPLGGESICSARALAKYSITFTGKWSQTAFPKQYPLFRPPAQWSSLLGAAHSSDYSMWRKNQYVSNGLRDFAERGEAWALMKEIEAAGEALQSVHAVFSAPAVPSGTGQTSAELEVQRRHSLVSFVVRIVPSPDWFVGVDSLDLCDGDRWREQAALDLYPYDAGTDSGFTFSSPNFATIPQDTVTEITSSSPSHPANSFYYPRLKALPPIARVTLVRLRQSPRAFIPPAPVLPSRDNEIVDSASVPETPLDCEVSLWSSWGLCGGHCGRLGTKSRTRYVRVQPANNGSPCPELEEEAECVPDNCV	−1.212			
MFGE8 (protein, UniProt Q08431 24-387, looked up) Lactadherin: LDICSKNPCHNGGLCEEISQEVRGDVFPSYTCTCLKGYAGNHCETKCVEPLGLENGNIANSQIAASSVRVTFLGLQHWVPELARLNRAGMVNAWTPSSNDDNPWIQVNLLRRMWVTGVVTQGASRLASHEYLKAFKVAYSLNGHEFDFIHDVNKKHKEFVGNWNKNAVHVNLFETPVEAQYVRLYPTSCHTACTLRFELLGCELNGCANPLGLKNNSIPDKQITASSSYKTWGLHLFSWNPSYARLDKQGNFNAWVAGSYGNDQWLQVDLGSSKEVTGIITQGARNFGSVQFVASYKVAYSNDSANWTEYQDPRTGSSKIFPGNWDNHSHKKNLFETPILARYVRILPVAWHNRIALRLELLGC	−3.4384	1.1591		
ALDH1A1 (protein, UniProt P00352 2-501, looked up) Aldehyde dehydrogenase 1A1: SSSGTPDLPVLLTDLKIQYTKIFINNEWHDSVSGKKFPVFNPATEEELCQVEEGDKEDVDKAVKAARQAFQIGSPWRTMDASERGRLLYKLADLIERDRLLLATMESMNGGKLYSNAYLNDLAGCIKTLRYCAGWADKIQGRTIPIDGNFFTYTRHEPIGVCGQIIPWNFPLVMLIWKIGPALSCGNTVVVKPAEQTPLTALHVASLIKEAGFPPGVVNIVPGYGPTAGAAISSHMDIDKVAFTGSTEVGKLIKEAAGKSNLKRVTLELGGKSPCIVLADADLDNAVEFAHHGVFYHQGQCCIAASRIFVEESIYDEFVRRSVERAKKYILGNPLTPGVTQGPQIDKEQYDKILDLIESGKKEGAKLECGGGPWGNKGYFVQPTVFSNVTDEMRIAKEEIFGPVQQIMKFKSLDDVIKRANNTFYGLSAGVFTKDIDKAITISSALQAGTVWVNCYGVVSAQCPFGGFKMSGNGRELGEYGFHEYTEVKTVTVKISQKNS	−3.168	−1.0791		
CRISP2 (protein, UniProt P16562 22-243, looked up) Cysteine-rich secretory …: KDPAFTALLTTQLQVQREIVNKHNELRKAVSPPASNMLKMEWSREVTTNAQRWANKCTLQHSDPEDRKTSTRCGENLYMSSDPTSWSSAIQSWYDEILDFVYGVGPKSPNAVVGHYTQLVWYSTYQVGCGIAYCPNQDSLKYYYVCQYCPAGNNMNRKNTPYQQGTPCAGCPDDCDKGLCTNSCQYQDLLSNCDSLKNTAGCEHELLKEKCKATCLCENKIY			2.2475	1.0244
ENPP7 (protein, UniProt Q6UWV6 22-458, looked up) Ectonucleotide …: APVQSQGSQNKLLLVSFDGFRWNYDQDVDTPNLDAMARDGVKARYMTPAFVTMTSPCHFTLVTGKYIENHGVVHNMYYNTTSKVKLPYHATLGIQRWWDNGSVPIWITAQRQGLRAGSFFYPGGNVTYQGVAVTRSRKEGIAHNYKNETEWRANIDTVMAWFTEEDLDLVTLYFGEPDSTGHRYGPESPERREMVRQVDRTVGYLRESIARNHLTDRLNLIITSDHGMTTVDKRAGDLVEFHKFPNFTFRDIEFELLDYGPNGMLLPKEGRLEKVYDALKDAHPKLHVYKKEAFPEAFHYANNPRVTPLLMYSDLGYVIHGRINVQFNNGEHGFDNKDMDMKTIFRAVGPSFRAGLEVEPFESVHVYELMCRLLGIVPEANDGHLATLLPMLHTESALPPDGRPTLLPKGRSALPPSSRPLLVMGLLGTVILLSEVA	−3.804	1.4178		
VAMP5 (protein, UniProt O95183 1-116, looked up) Vesicle-associated membrane …: MAGIELERCQQQANEVTEIMRNNFGKVLERGVKLAELQQRSDQLLDMSSTFNKTTQNLAQKKCWENIRYRICVGLVVVGVLLIILIVLLVVFLPQSSDSSSAPRTQDAGIASGPGN	−4.3186	−1.3344		
KRT19 (protein, UniProt P08727 1-400, looked up) Keratin, type I cytoskeletal …: MTSYSYRQSSATSSFGGLGGGSVRFGPGVAFRAPSIHGGSGGRGVSVSSARFVSSSSSGAYGGGYGGVLTASDGLLAGNEKLTMQNLNDRLASYLDKVRALEAANGELEVKIRDWYQKQGPGPSRDYSHYYTTIQDLRDKILGATIENSRIVLQIDNARLAADDFRTKFETEQALRMSVEADINGLRRVLDELTLARTDLEMQIEGLKEELAYLKKNHEEEISTLRGQVGGQVSVEVDSAPGTDLAKILSDMRSQYEVMAEQNRKDAEAWFTSRTEELNREVAGHTEQLQMSRSEVTDLRRTLQGLEIELQSQLSMKAALEDTLAETEARFGAQLAHIQALISGIEAQLGDVRADSERQNQEYQRLMDIKSRLEQEIATYRSLLEGQEDHYNNLSASKVL	−3.2722	−1.0142		
PRSS2 (protein, UniProt P07478 24-247, looked up) Trypsin-2: IVGGYICEENSVPYQVSLNSGYHFCGGSLISEQWVVSAGHCYKSRIQVRLGEHNIEVLEGNEQFINAAKIIRHPKYNSRTLDNDILLIKLSSPAVINSRVSAISLPTAPPAAGTESLISGWGNTLSSGADYPDELQCLDAPVLSQAECEASYPGKITNNMFCVGFLEGGKDSCQGDSGGPVVSNGELQGIVSWGYGCAQKNRPGVYTKVYNYVDWIKDTIAANS	−3.6787	−1.1946		
CR2 (protein, UniProt P20023 21-1033, looked up) Complement receptor type 2: ISCGSPPPILNGRISYYSTPIAVGTVIRYSCSGTFRLIGEKSLLCITKDKVDGTWDKPAPKCEYFNKYSSCPEPIVPGGYKIRGSTPYRHGDSVTFACKTNFSMNGNKSVWCQANNMWGPTRLPTCVSVFPLECPALPMIHNGHHTSENVGSIAPGLSVTYSCESGYLLVGEKIINCLSSGKWSAVPPTCEEARCKSLGRFPNGKVKEPPILRVGVTANFFCDEGYRLQGPPSSRCVIAGQGVAWTKMPVCEEIFCPSPPPILNGRHIGNSLANVSYGSIVTYTCDPDPEEGVNFILIGESTLRCTVDSQKTGTWSGPAPRCELSTSAVQCPHPQILRGRMVSGQKDRYTYNDTVIFACMFGFTLKGSKQIRCNAQGTWEPSAPVCEKECQAPPNILNGQKEDRHMVRFDPGTSIKYSCNPGYVLVGEESIQCTSEGVWTPPVPQCKVAACEATGRQLLTKPQHQFVRPDVNSSCGEGYKLSGSVYQECQGTIPWFMEIRLCKEITCPPPPVIYNGAHTGSSLEDFPYGTTVTYTCNPGPERGVEFSLIGESTIRCTSNDQERGTWSGPAPLCKLSLLAVQCSHVHIANGYKISGKEAPYFYNDTVTFKCYSGFTLKGSSQIRCKADNTWDPEIPVCEKETCQHVRQSLQELPAGSRVELVNTSCQDGYQLTGHAYQMCQDAENGIWFKKIPLCKVIHCHPPPVIVNGKHTGMMAENFLYGNEVSYECDQGFYLLGEKKLQCRSDSKGHGSWSGPSPQCLRSPPVTRCPNPEVKHGYKLNKTHSAYSHNDIVYVDCNPGFIMNGSRVIRCHTDNTWVPGVPTCIKKAFIGCPPPPKTPNGNHTGGNIARFSPGMSILYSCDQGYLLVGEALLLCTHEGTWSQPAPHCKEVNCSSPADMDGIQKGLEPRKMYQYGAVVTLECEDGYMLEGSPQSQCQSDHQWNPPLAVCRSRSLAPVLCGIAAGLILLTFLIVITLYVISKHRARNYYTDTSQKEAFHLEAREVYSVDPYNPAS			2.1595	−1.1488
